Data as given in US20260027243A1, “AMPHIPHILIC COMPOUNDS FOR ATTENUATING NEUROTOXICITY OF AMYLOID-beta OLIGOMERS AND DIAGNOSTIC METHODS” (THE BOARD OF TRUSTEES OF THE UNIVERSITY OF ILLINOIS, priority 2022, published 2026).
For some assays here: The name of at least one read-out is uncertain. Some results were stated once for a whole list of compounds, not compound by compound.

Test system: native Aβ aggregates in AD mice brain
Assay: BBB permeability: in vivo accumulation after intraperitoneal treatment, brain section colocalization
Parameters: species or system mouse
Conditions: 12-month-old AD mice, 0.1 mg/Kg, 10 days
Method: FIG. 13. In vivo accumulation of DCM-OH-2-DT. Fluorescence microscopy images of brain sections from 12-month-old 5×FAD mice administered with DCM-OH-2-DT for 10 days. The brain sections were stained with Thioflavin S (ThS); [ThS]=5 μM, scale bar=125 μm.
Fluorescence Imaging of 5×FAD Mouse Brain Sections and blood-brain barrier (BBB) permeability. To confirm the developed compounds can also bind to native Aβ aggregates, we performed fluorescence imaging studies and colocalization experiments on 5×FAD mouse brain sections. […] This further supports that the compounds are selective and can bind to native soluble Aβ oligomers. Before investigating the blood-brain barrier (BBB) permeability of the developed compounds, their neurotoxicity was measured first (FIG. 12). […] DCM-OH-2 leads to less than 80% cell viability even at 2 μM, which is probably due to its poor solubility. Nevertheless, the DCM-OH-2-DT was chosen as the candidate to test the blood-brain barrier (BBB) permeability. 12-month-old AD mice were treated with compound DCM-OH-2-DT (0.1 mg/Kg) for 10 days via intraperitoneal injection. At the end of treatment, mice brains were harvested and colocalization experiments were performed on the mice brain sections.

SMILES	blood-brain barrier permeability
CN1CCN(C)CCN(Cc2cc(/C=C/C=C/C3=CC(=C(C#N)C#N)c4ccccc4O3)cc(CN3CCN(C)CCN(C)CC3)c2O)CC1 [DCM-OH-2-DT, 2-(2-((1E,3E)-4-(3,5-bis((4,7-dimethyl-1,4,7-triazonan-1-yl)methyl)-4-hydroxyphenyl)buta-1,3-dien-1-yl)-4H-chromen-4-ylidene)malononitrile]	can successfully cross the BBB

Test system: mouse neuroblastoma N2a cells
Assay: Alamar blue cytotoxicity in N2a cells
Assay type: cell-based
Conditions: up to 1 μM
Method: Cytotoxicity Studies. Alamar Blue assay was chosen for the cytotoxicity studies. Mouse neuroblastoma Neuro2A (N2A) cells were grown with DMEM/10% FBS in a petri dish at 37° C. in a humidified atmosphere with 5% CO2. Then N2A cells were seeded in a 96-well plate (1.0×10^4/well). After 24 h incubation, cell media was changed to DMEM/N-2, and N2A cells were incubated for another 1 h. Then the cells were treated with different concentrations of compounds for 40 h, Alamar Blue solution (10 μL) was added, and the cells were incubated for another 90 min at 37° C. The fluorescence intensity of each well was measured at 590 nm (excitation wavelength=560 nm).

SMILES	cell viability [%]
COc1cc(OC)cc(-c2ccc(/C=C/c3ccc(O)c(CN4CCN(C)CCN(C)CC4)c3)cc2)c1 [ZY-17-MT, (E)-4-(2-(3′,5′-dimethoxy-[1,1′-biphenyl]-4-yl)vinyl)-2-((4,7-dimethyl-1,4,7-triazonan-1-yl)methyl)phenol]	> 80
COc1cc(/C=C/c2ccc(-c3ccc(N(C)C)cc3)s2)cc(CN2CCN(C)CCN(C)CC2)c1O [ZY-5-OMe, (E)-2-((4,7-dimethyl-1,4,7-triazonan-1-yl)methyl)-4-(2-(5-(4-(dimethylamino)phenyl)thiophen-2-yl)vinyl)-6-methoxyphenol]	> 80
CN1CCN(C)CCN(Cc2cc(-c3ccc(/C=C/c4ccc(N(C)C)cc4)s3)ccc2O)CC1 [ZY-12-MT, (E)-2-((4,7-dimethyl-1,4,7-triazonan-1-yl)methyl)-4-(5-(4-(dimethylamino)styryl)thiophen-2-yl)phenol]	> 80
CN1CCN(C)CCN(Cc2cc(/C=C/c3ccc(-c4ccc(C=O)cc4)s3)ccc2O)CC1 [ZY-15-MT, (E)-4-(5-(3-((4,7-dimethyl-1,4,7-triazonan-1-yl)methyl)-4-hydroxystyryl)thiophen-2-yl)benzaldehyde]	> 80
CN1CCN(C)CCN(Cc2cc(/C=C/c3ccc(-c4ccc(N(C)C)cc4)s3)ccc2O)CC1 [ZY-5-MT, (E)-2-((4,7-dimethyl-1,4,7-triazonan-1-yl)methyl)-4-(2-(5-(4-(dimethylamino)phenyl)thiophen-2-yl)vinyl)phenol]	> 80
COc1cc(/C=C/c2ccc(-c3ccc(C=O)cc3)s2)cc(CN2CCN(C)CCN(C)CC2)c1O [ZY-15-OMe, (E)-4-(5-(3-((4,7-dimethyl-1,4,7-triazonan-1-yl)methyl)-4-hydroxy-5-methoxystyryl)thiophen-2-yl)benzaldehyde]	> 80
CN1CCN(C)CCN(Cc2cc(/C=C/c3ccc(-c4ccc(N(C)C)cc4)s3)cc(CN3CCN(C)CCN(C)CC3)c2O)CC1 [ZY-5-DT, (E)-2,6-bis((4,7-dimethyl-1,4,7-triazonan-1-yl)methyl)-4-(2-(5-(4-(dimethylamino)phenyl)thiophen-2-yl)vinyl)phenol]	> 80
